Source: article PMC5990496
Residue numbers refer to the chain shown, from its start. Results are given in words; binding and its absence hold for the method and conditions named. Binding seen in cells or lysates may run through a third protein. Some entries that bind do so weakly or less than the wild type. Where a sequence is shown, tags or fusion partners need not be part of it.

Key:
Experiment in all cases: co-IP; overexpressed, tagged versions of centrobin and CEP120, from cell extracts, at 4°C; which protein was precipitated is not told
[1] = target: T1, tagged CEP120 V194A (JS mutation) (human) (UniProt Q8N960)
T1 sequence: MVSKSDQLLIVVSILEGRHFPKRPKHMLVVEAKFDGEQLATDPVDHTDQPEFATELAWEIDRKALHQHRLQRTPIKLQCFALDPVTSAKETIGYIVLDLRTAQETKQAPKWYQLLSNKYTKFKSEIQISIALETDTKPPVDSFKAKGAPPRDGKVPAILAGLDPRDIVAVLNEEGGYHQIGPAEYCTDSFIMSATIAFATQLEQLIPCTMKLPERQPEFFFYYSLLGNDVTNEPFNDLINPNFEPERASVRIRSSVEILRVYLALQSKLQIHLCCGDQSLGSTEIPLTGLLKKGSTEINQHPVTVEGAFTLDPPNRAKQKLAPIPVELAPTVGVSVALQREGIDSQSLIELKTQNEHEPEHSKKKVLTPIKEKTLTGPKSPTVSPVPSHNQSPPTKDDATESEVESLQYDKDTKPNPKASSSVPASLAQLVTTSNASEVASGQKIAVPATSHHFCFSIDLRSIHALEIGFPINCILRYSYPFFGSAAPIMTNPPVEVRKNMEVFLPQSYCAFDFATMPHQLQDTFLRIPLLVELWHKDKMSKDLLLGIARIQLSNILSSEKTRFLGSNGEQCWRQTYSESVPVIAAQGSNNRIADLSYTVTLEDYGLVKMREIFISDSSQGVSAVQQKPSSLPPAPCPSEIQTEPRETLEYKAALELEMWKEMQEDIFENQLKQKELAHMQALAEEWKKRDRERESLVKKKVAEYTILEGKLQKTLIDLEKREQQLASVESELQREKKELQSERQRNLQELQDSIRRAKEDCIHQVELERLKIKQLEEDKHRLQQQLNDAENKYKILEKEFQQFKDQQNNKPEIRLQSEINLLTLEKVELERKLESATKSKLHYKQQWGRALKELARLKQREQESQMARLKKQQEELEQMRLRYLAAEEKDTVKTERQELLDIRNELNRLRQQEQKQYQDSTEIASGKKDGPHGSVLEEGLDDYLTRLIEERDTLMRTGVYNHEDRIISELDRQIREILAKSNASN

[2] = target: T2, tagged CEP120 A199P (JATD mutation) (human) (UniProt Q8N960)
T2 sequence: T1 sequence with A194V, A199P

[3] = target: T3, tagged CEP120 (overexpressed, for co-immunoprecipitation) (human) (UniProt Q8N960)
T3 sequence: T1 sequence with A194V

Measured: binding

B1: tagged centrobin (overexpressed, for co-immunoprecipitation) (protein, UniProt Q8N137 1-903)
chain: MATSADSPSSPLGAEDLLSDSSEPPGLNQVSSEVTSQLYASLRLSRQAEATARAQLYLPSTSPPHEGLDGFAQELSRSLSVGLEKNLKKKDGSKHIFEMESVRGQLQTMLQTSRDTAYRDPLIPGAGSERREEDSFDSDSTATLLNTRPLQDLSPSSSAQALEELFPRYTSLRPGPPLNPPDFQGLRDALDSEHTRRKHCERHIQSLQTRVLELQQQLAVAVAADRKKDTMIEQLDKTLARVVEGWNRHEAERTEVLRGLQEEHQAAELTRSKQQETVTRLEQSLSEAMEALNREQESARLQQRERETLEEERQALTLRLEAEQQRCCVLQEERDAARAGQLSEHRELETLRAALEEERQTWAQQEHQLKEHYQALQEESQAQLEREKEKSQREAQAAWETQHQLALVQSEVRRLEGELDTARRERDALQLEMSLVQARYESQRIQLESELAVQLEQRVTERLAQAQESSLRQAASLREHHRKQLQDLSGQHQQELASQLAQFKVEMAEREERQQQVAEDYELRLAREQARVCELQSGNQQLEEQRVELVERLQAMLQAHWDEANQLLSTTLPPPNPPAPPAGPSSPGPQEPEKEERRVWTMPPMAVALKPVLQQSREARDELPGAPPVLCSSSSDLSLLLGPSFQSQHSFQPLEPKPDLTSSTAGAFSALGAFHPDHRAERPFPEEDPGPDGEGLLKQGLPPAQLEGLKNFLHQLLETVPQNNENPSVDLLPPKSGPLTVPSWEEAPQVPRIPPPVHKTKVPLAMASSLFRVPEPPSSHSQGSGPSSGSPERGGDGLTFPRQLMEVSQLLRLYQARGWGALPAEDLLLYLKRLEHSGTDGRGDNVPRRNTDSRLGEIPRKEIPSQAVPRRLATAPKTEKPPARKKSGHPAPSSMRSRGGVWR
binds: [1] | [2] | [3]
